Laboratory results reported in publication PMC11312933, “Mystery of the Passerini Reaction for the Synthesis of the Antimicrobial Peptidomimetics against Nosocomial Pathogenic Bacteria” (International Journal of Molecular Sciences, 2024).

Test: MTT cytotoxicity assay
Conditions: mouse, BALB/c3T3 mouse embryonic fibroblast cells

O=C(O)c1cn(C2CC2)c2cc(N3CCNCC3)c(F)cc2c1=O [ciprofloxacin, reference compound]
viability: 85 to 89.9%
